# Some of the results follow. Only hits are listed; about a third recur on repeated control peptides.
# Chains of the proteins cited; added tags and fusions are not shown. Lines headed by an entry give the natural chain unless they say otherwise; changes in a name come on top.
# CNOT3, O75175, UniProt O75175, whole entry: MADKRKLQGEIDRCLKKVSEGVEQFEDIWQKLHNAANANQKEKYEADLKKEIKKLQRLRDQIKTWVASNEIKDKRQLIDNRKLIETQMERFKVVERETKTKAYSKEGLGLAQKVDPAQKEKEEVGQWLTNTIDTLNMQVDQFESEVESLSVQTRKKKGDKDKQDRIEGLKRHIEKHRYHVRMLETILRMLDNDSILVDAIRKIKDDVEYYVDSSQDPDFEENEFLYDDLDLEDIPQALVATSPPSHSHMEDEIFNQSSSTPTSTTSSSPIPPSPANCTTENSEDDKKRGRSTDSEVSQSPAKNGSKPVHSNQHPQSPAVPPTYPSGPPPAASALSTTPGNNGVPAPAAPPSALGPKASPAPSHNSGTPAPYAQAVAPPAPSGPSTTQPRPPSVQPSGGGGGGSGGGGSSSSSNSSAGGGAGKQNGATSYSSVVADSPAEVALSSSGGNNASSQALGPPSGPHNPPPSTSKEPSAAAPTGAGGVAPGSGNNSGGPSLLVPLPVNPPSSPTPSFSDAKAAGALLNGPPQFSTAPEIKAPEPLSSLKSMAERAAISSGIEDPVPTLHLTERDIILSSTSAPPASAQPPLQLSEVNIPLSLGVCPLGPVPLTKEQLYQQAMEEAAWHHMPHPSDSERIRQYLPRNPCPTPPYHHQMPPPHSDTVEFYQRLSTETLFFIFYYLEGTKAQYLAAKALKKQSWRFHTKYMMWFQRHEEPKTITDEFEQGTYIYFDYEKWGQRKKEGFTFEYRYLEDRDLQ
# DCTN2, Q13561, UniProt Q13561, whole entry: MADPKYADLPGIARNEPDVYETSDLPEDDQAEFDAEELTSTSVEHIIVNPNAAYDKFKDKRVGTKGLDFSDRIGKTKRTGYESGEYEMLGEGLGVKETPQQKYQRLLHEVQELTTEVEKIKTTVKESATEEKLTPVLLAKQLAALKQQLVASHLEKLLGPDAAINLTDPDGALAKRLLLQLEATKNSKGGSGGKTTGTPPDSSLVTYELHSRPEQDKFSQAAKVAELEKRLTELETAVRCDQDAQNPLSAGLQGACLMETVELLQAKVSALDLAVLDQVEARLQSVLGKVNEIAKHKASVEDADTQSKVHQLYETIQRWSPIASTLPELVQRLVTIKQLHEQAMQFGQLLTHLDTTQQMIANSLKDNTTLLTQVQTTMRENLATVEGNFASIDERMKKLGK
# RBM25, P49756, UniProt P49756, whole entry: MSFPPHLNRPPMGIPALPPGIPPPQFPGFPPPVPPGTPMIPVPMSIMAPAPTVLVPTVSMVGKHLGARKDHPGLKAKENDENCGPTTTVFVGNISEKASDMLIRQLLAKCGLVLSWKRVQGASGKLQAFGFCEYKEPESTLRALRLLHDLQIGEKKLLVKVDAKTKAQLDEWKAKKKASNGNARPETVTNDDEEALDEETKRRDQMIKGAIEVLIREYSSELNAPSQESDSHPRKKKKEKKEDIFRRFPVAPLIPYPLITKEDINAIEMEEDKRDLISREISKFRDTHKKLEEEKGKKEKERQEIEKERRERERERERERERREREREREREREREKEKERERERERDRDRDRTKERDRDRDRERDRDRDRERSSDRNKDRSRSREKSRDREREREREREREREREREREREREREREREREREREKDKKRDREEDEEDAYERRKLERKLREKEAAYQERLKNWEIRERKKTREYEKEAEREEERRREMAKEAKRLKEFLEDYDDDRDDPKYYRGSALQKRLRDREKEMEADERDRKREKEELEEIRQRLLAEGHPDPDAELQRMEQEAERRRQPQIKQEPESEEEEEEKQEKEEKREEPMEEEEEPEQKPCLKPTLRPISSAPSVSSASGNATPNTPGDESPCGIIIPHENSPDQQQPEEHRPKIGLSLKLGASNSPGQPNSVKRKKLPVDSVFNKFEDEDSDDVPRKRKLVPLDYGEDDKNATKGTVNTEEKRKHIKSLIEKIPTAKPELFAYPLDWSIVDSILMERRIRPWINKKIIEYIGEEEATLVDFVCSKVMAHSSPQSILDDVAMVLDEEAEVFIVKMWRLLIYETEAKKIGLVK
# RFC2, P35250, UniProt P35250, whole entry: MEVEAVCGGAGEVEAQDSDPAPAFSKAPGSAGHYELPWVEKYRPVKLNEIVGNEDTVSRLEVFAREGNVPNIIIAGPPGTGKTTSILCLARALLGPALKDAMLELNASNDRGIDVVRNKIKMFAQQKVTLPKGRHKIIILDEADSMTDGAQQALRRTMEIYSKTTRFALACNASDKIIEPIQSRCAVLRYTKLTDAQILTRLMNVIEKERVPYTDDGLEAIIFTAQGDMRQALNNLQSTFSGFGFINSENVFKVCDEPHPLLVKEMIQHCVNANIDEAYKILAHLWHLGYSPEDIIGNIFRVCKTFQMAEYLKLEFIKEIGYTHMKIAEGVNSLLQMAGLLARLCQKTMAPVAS
# SRPK1, Q96SB4, UniProt Q96SB4, whole entry: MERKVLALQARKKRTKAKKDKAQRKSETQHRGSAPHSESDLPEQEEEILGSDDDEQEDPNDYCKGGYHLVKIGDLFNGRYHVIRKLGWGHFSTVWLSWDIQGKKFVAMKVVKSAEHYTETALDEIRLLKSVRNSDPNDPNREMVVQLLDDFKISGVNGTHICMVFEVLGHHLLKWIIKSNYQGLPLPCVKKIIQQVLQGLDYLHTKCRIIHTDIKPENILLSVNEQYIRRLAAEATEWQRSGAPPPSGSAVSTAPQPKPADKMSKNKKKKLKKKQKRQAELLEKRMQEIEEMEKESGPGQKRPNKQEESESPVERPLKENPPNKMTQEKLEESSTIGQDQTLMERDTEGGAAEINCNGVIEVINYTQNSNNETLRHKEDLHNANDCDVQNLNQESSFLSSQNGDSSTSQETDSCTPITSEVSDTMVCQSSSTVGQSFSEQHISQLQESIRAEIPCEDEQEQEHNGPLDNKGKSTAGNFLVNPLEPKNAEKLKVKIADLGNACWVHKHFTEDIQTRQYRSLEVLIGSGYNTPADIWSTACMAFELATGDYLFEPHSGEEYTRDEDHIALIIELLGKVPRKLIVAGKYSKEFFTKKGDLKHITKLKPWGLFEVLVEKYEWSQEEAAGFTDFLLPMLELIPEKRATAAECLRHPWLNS
# TUBB8, Q3ZCM7, UniProt Q3ZCM7, whole entry: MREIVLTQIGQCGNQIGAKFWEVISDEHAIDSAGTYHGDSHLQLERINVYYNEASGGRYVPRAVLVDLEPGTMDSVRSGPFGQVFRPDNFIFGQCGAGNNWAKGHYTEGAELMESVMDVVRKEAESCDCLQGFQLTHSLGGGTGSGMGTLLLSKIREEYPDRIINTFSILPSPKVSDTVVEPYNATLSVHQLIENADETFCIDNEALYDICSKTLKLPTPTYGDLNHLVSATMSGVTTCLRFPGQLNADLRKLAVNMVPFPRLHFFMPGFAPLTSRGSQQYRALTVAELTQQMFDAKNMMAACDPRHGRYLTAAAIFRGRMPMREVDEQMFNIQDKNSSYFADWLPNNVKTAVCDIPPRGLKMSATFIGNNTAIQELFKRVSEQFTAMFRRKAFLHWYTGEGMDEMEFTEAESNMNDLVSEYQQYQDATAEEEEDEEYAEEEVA
# A2M, P01023, UniProt P01023, whole entry: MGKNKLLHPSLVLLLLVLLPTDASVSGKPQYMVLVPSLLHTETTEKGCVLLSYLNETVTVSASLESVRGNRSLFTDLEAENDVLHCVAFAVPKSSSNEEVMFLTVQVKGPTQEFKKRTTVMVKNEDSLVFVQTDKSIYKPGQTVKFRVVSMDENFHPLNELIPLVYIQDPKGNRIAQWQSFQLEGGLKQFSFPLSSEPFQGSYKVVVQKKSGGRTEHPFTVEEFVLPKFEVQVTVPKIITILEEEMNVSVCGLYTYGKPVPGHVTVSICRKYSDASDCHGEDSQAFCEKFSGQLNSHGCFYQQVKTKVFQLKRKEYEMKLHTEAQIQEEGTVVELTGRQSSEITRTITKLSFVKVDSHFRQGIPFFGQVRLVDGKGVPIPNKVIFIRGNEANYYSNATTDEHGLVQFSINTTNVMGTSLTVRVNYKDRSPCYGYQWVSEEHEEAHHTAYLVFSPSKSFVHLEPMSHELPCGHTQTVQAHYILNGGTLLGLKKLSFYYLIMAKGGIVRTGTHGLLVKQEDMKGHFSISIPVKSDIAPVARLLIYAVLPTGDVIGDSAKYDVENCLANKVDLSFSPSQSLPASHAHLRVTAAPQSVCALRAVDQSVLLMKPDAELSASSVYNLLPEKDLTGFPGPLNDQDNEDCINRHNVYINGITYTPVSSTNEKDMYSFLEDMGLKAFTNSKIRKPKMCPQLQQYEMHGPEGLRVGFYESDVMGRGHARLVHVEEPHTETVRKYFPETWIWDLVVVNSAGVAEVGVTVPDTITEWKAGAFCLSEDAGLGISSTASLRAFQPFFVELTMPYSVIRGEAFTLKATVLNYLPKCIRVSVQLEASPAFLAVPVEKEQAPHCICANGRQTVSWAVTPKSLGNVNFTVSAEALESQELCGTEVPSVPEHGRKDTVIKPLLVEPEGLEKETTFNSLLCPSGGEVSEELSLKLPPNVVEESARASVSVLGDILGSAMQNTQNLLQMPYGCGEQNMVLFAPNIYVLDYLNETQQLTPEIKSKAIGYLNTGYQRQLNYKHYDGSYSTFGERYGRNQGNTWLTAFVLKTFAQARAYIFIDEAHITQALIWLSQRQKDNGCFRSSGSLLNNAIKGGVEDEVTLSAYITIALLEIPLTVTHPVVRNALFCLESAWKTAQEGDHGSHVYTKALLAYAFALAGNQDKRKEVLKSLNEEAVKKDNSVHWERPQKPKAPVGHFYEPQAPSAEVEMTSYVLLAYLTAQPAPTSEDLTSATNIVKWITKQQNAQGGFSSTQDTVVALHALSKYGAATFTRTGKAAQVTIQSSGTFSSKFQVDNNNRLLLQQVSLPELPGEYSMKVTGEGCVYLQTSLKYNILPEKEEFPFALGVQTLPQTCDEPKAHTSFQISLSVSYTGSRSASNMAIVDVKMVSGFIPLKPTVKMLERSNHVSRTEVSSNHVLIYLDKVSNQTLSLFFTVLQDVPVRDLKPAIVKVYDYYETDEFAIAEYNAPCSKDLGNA
# EIF1, P41567, UniProt P41567, whole entry: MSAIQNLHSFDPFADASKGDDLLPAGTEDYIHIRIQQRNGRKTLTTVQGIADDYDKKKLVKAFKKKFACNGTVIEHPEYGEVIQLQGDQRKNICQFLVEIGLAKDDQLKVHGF
# GPN1, Q9HCN4, UniProt Q9HCN4, whole entry: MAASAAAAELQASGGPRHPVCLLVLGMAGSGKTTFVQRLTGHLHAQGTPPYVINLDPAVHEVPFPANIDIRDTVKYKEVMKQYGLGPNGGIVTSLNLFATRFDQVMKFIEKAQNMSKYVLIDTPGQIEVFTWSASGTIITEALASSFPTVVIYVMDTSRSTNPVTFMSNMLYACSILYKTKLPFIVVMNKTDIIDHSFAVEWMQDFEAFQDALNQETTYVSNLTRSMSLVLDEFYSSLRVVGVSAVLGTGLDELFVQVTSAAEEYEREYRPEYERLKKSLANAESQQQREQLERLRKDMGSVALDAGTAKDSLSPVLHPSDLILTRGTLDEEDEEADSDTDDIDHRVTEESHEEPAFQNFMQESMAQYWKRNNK
# NDUFB11, Q9NX14, UniProt Q9NX14, whole entry: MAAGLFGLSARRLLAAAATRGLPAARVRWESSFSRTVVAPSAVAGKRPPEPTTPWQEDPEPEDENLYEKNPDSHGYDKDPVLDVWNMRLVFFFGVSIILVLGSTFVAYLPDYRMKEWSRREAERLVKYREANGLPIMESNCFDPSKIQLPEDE
# PGAM5, Q96HS1, UniProt Q96HS1, whole entry: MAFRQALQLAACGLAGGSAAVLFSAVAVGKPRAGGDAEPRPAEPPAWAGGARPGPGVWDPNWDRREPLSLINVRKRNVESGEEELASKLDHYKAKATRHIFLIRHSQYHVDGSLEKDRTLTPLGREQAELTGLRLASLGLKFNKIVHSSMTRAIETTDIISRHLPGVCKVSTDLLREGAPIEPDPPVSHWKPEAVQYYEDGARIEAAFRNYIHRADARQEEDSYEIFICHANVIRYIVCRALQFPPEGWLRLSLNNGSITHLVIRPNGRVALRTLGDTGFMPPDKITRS
# Experiments:
# Test in all cases: PRISMA enrichment of interactor (LFQ) in peptide spot vs all other peptide spots (log2 fold change); higher = stronger / more specific binding of the interactor to the peptide
# [1] = molecular target: AAMDC, Q9H7C9
# Description: (§1)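 PRISMA: 15-aa overlapping tiles (offset 8 aa) of 60 microproteins, plus SOS1/GLUT1 control peptides, were spot-synthesized on cellulose membranes in triplicate. Membranes were incubated with benzonase-treated HEK293T lysate, and bound proteins were identified by LC-MS/MS with LFQ. Enrichment is the log2 fold change of each protein in one spot versus all other spots. Only interactors passing the significance cutoff are listed.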
# [2] = molecular target: AK4, P27144
# Description: as §1
# [3] = molecular target: CIZ1, Q9ULV3
# Description: as §1
# [4] = molecular target: CNOT3, O75175
# Description: as §1
# [5] = molecular target: DCAF13, Q9NV06
# Description: as §1
# [6] = molecular target: DCTN2, Q13561
# Description: as §1
# [7] = molecular target: DDX49, Q9Y6V7
# Description: as §1
# [8] = molecular target: GEMIN2, O14893
# Description: as §1
# [9] = molecular target: PACSIN2, Q9UNF0
# Description: as §1
# [10] = molecular target: RBM25, P49756
# Description: as §1
# [11] = molecular target: RFC2, P35250
# Description: as §1
# [12] = molecular target: SAAL1, Q96ER3
# Description: as §1
# [13] = molecular target: SDAD1, Q9NVU7
# Description: as §1
# [14] = molecular target: SEPTIN7, Q16181
# Description: as §1
# [15] = molecular target: TPT1, P13693
# Description: (§2)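 PRISMA: 221 full-length sORF-encoded peptides (3-15 aa), plus SOS1/GLUT1 control peptides, were spot-synthesized on cellulose membranes in triplicate. Membranes were incubated with HEK293T lysate, and bound proteins were identified by LC-MS/MS with LFQ. Enrichment is the log2 fold change versus all other peptide spots; only significant interactors are listed (cutoff c=6, x0=2.8).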
# [16] = molecular target: FAM49B, Q9NUQ9
# Description: as §1
# [17] = molecular target: GPD1L, Q8N335
# Description: as §1
# [18] = molecular target: GSK3B, P49841
# Description: as §1
# [19] = molecular target: NTMT1, Q9BV86
# Description: as §1
# [20] = molecular target: TRAF7, Q6Q0C0
# Description: as §2
# [21] = molecular target: SRPK1, Q96SB4
# Description: as §2
# [22] = molecular target: TUBB8, Q3ZCM7
# Description: as §2
# [23] = molecular target: TBCD, Q9BTW9
# Description: as §2
# [24] = molecular target: UTP11, Q9Y3A2
# Description: as §2
# [25] = molecular target: A2M, P01023
# Description: as §1
# [26] = molecular target: ACLY, P53396
# Description: as §1
# [27] = molecular target: ARHGDIA, P52565
# Description: as §1
# [28] = molecular target: ARIH1, Q9Y4X5
# Description: as §1
# [29] = molecular target: CDC45, O75419
# Description: as §1
# [30] = molecular target: CKAP2L, Q8IYA6
# Description: as §1
# [31] = molecular target: CLASRP, Q8N2M8
# Description: as §1
# [32] = molecular target: CREBBP, Q92793
# Description: as §1
# [33] = molecular target: CWC25, Q9NXE8
# Description: as §1
# [34] = molecular target: DBR1, Q9UK59
# Description: as §1
# [35] = molecular target: ECHS1, P30084
# Description: as §1
# [36] = molecular target: EIF1, P41567
# Description: as §1
# [37] = molecular target: FGA, P02671
# Description: as §1
# [38] = molecular target: FRG1, Q14331
# Description: as §1
# [39] = molecular target: GPN1, Q9HCN4
# Description: as §1
# [40] = molecular target: HNRNPAB, Q99729
# Description: as §1
# [41] = molecular target: NDUFB11, Q9NX14
# Description: as §1
# [42] = molecular target: NOL9, Q5SY16
# Description: as §1
# [43] = molecular target: OSBPL3, Q9H4L5
# Description: as §1
# [44] = molecular target: PGAM5, Q96HS1
# Description: as §1
# [45] = molecular target: PTCD3, Q96EY7
# Description: as §1
# [46] = molecular target: RBM34, P42696
# Description: as §1
# [47] = molecular target: RFC1, P35251
# Description: as §1
# [48] = molecular target: SRSF10, O75494
# Description: as §1
# [49] = substrate: SSB, P05455
# Description: as §1
# [50] = molecular target: TARS, P26639
# Description: as §1
# [51] = molecular target: TFAM, Q00059
# Description: as §1
# [52] = molecular target: TMED1, Q13445
# Description: as §1
# [53] = molecular target: UBAC2, Q8NBM4
# Description: as §1
# [54] = molecular target: VIRMA, Q69YN4
# Description: as §1
# [55] = molecular target: XRCC5, P13010
# Description: as §1
binder,measurement,setting,value
QGTTCEMKDLRCCIG,PRISMA enrichment of interactor (log2),[1],4
same,PRISMA enrichment of interactor (log2),[2],4.78
same,PRISMA enrichment of interactor (log2),[3],5.82
same,PRISMA enrichment of interactor (log2),[4],4.75
same,PRISMA enrichment of interactor (log2),[5],3.94
same,PRISMA enrichment of interactor (log2),[6],4.7
same,PRISMA enrichment of interactor (log2),[7],5.64
same,PRISMA enrichment of interactor (log2),[8],5.35
same,PRISMA enrichment of interactor (log2),[9],5.17
same,PRISMA enrichment of interactor (log2),[10],5.38
same,PRISMA enrichment of interactor (log2),[11],4.77
same,PRISMA enrichment of interactor (log2),[12],4.69
same,PRISMA enrichment of interactor (log2),[13],5.25
same,PRISMA enrichment of interactor (log2),[14],4.44
MKGQY [BANCR],PRISMA enrichment of interactor (log2),[15],10.6
same,PRISMA enrichment of interactor (log2),[16],4.25
same,PRISMA enrichment of interactor (log2),[17],4.98
same,PRISMA enrichment of interactor (log2),[18],6.39
same,PRISMA enrichment of interactor (log2),[19],4.1
MCGTFIAE [PDGFRA],PRISMA enrichment of interactor (log2),[20],8.22
MRRGIIV [TMEM173],PRISMA enrichment of interactor (log2),[21],7.48
same,PRISMA enrichment of interactor (log2),[22],6.02
MAVLLKGL [VPS39],PRISMA enrichment of interactor (log2),[23],5.37
same,PRISMA enrichment of interactor (log2),[24],4.55
FPVLTVTQGTTCEMK,PRISMA enrichment of interactor (log2),[25],4.15
same,PRISMA enrichment of interactor (log2),[26],4.74
same,PRISMA enrichment of interactor (log2),[27],4.02
same,PRISMA enrichment of interactor (log2),[28],3.87
same,PRISMA enrichment of interactor (log2),[29],3.89
same,PRISMA enrichment of interactor (log2),[30],4.38
same,PRISMA enrichment of interactor (log2),[31],4.52
same,PRISMA enrichment of interactor (log2),[32],3.71
same,PRISMA enrichment of interactor (log2),[33],5.46
same,PRISMA enrichment of interactor (log2),[34],5.43
same,PRISMA enrichment of interactor (log2),[35],4.94
same,PRISMA enrichment of interactor (log2),[36],6.34
same,PRISMA enrichment of interactor (log2),[37],4.91
same,PRISMA enrichment of interactor (log2),[38],4.24
same,PRISMA enrichment of interactor (log2),[39],6.58
same,PRISMA enrichment of interactor (log2),[40],4.81
same,PRISMA enrichment of interactor (log2),[41],5.47
same,PRISMA enrichment of interactor (log2),[42],5.36
same,PRISMA enrichment of interactor (log2),[43],3.58
same,PRISMA enrichment of interactor (log2),[44],5.11
same,PRISMA enrichment of interactor (log2),[45],5.68
same,PRISMA enrichment of interactor (log2),[46],7.35
same,PRISMA enrichment of interactor (log2),[47],4.88
same,PRISMA enrichment of interactor (log2),[48],6.1
same,PRISMA enrichment of interactor (log2),[49],7.25
same,PRISMA enrichment of interactor (log2),[50],5.45
same,PRISMA enrichment of interactor (log2),[51],6.84
same,PRISMA enrichment of interactor (log2),[52],5.12
same,PRISMA enrichment of interactor (log2),[53],4.78
same,PRISMA enrichment of interactor (log2),[54],4.61
same,PRISMA enrichment of interactor (log2),[55],4.91

# Eleven successive records out of the list so far, quoted:
binder,measurement,setting,value
QGTTCEMKDLRCCIG,PRISMA enrichment of interactor (log2),[13],5.25
same,PRISMA enrichment of interactor (log2),[14],4.44
MKGQY [BANCR],PRISMA enrichment of interactor (log2),[15],10.6
same,PRISMA enrichment of interactor (log2),[16],4.25
same,PRISMA enrichment of interactor (log2),[17],4.98
same,PRISMA enrichment of interactor (log2),[18],6.39
same,PRISMA enrichment of interactor (log2),[19],4.1
MCGTFIAE [PDGFRA],PRISMA enrichment of interactor (log2),[20],8.22
MRRGIIV [TMEM173],PRISMA enrichment of interactor (log2),[21],7.48
same,PRISMA enrichment of interactor (log2),[22],6.02
MAVLLKGL [VPS39],PRISMA enrichment of interactor (log2),[23],5.37

# From the supplement of paper PMC10032668
